From article doi:10.1101/2025.08.04.668477
These are yes or no findings as the source states them, for the method shown. In cells and extracts the contact can be indirect. Some results given as binding are weak or reduced against the parent protein; the word gives no strength.

Chains of the proteins cited; added tags and fusions are not shown. Lines headed by an entry give the natural chain unless they say otherwise; changes in a name come on top. A line that says so, or that is headed by a name, gives the form on record, which may keep a tag or linker.
androgen receptor splice variant 7 (endogenous) (human (endogenous in 22Rv1)) (P10275, form named): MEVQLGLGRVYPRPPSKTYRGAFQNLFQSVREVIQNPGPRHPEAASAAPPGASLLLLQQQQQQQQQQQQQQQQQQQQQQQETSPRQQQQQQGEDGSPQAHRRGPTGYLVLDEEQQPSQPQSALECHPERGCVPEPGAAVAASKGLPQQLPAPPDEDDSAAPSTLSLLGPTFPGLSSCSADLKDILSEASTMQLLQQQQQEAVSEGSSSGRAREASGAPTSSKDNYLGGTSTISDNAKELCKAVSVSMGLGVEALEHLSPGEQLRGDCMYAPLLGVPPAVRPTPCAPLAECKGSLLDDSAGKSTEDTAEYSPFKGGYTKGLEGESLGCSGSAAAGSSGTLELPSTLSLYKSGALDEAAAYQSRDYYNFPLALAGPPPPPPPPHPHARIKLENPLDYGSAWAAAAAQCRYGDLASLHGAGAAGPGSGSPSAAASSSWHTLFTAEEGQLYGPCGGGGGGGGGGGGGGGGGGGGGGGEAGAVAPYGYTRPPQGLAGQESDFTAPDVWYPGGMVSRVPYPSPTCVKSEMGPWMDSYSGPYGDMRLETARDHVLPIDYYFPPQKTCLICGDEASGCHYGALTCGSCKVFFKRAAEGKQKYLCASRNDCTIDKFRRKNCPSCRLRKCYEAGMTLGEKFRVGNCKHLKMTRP
UniProt Q09472: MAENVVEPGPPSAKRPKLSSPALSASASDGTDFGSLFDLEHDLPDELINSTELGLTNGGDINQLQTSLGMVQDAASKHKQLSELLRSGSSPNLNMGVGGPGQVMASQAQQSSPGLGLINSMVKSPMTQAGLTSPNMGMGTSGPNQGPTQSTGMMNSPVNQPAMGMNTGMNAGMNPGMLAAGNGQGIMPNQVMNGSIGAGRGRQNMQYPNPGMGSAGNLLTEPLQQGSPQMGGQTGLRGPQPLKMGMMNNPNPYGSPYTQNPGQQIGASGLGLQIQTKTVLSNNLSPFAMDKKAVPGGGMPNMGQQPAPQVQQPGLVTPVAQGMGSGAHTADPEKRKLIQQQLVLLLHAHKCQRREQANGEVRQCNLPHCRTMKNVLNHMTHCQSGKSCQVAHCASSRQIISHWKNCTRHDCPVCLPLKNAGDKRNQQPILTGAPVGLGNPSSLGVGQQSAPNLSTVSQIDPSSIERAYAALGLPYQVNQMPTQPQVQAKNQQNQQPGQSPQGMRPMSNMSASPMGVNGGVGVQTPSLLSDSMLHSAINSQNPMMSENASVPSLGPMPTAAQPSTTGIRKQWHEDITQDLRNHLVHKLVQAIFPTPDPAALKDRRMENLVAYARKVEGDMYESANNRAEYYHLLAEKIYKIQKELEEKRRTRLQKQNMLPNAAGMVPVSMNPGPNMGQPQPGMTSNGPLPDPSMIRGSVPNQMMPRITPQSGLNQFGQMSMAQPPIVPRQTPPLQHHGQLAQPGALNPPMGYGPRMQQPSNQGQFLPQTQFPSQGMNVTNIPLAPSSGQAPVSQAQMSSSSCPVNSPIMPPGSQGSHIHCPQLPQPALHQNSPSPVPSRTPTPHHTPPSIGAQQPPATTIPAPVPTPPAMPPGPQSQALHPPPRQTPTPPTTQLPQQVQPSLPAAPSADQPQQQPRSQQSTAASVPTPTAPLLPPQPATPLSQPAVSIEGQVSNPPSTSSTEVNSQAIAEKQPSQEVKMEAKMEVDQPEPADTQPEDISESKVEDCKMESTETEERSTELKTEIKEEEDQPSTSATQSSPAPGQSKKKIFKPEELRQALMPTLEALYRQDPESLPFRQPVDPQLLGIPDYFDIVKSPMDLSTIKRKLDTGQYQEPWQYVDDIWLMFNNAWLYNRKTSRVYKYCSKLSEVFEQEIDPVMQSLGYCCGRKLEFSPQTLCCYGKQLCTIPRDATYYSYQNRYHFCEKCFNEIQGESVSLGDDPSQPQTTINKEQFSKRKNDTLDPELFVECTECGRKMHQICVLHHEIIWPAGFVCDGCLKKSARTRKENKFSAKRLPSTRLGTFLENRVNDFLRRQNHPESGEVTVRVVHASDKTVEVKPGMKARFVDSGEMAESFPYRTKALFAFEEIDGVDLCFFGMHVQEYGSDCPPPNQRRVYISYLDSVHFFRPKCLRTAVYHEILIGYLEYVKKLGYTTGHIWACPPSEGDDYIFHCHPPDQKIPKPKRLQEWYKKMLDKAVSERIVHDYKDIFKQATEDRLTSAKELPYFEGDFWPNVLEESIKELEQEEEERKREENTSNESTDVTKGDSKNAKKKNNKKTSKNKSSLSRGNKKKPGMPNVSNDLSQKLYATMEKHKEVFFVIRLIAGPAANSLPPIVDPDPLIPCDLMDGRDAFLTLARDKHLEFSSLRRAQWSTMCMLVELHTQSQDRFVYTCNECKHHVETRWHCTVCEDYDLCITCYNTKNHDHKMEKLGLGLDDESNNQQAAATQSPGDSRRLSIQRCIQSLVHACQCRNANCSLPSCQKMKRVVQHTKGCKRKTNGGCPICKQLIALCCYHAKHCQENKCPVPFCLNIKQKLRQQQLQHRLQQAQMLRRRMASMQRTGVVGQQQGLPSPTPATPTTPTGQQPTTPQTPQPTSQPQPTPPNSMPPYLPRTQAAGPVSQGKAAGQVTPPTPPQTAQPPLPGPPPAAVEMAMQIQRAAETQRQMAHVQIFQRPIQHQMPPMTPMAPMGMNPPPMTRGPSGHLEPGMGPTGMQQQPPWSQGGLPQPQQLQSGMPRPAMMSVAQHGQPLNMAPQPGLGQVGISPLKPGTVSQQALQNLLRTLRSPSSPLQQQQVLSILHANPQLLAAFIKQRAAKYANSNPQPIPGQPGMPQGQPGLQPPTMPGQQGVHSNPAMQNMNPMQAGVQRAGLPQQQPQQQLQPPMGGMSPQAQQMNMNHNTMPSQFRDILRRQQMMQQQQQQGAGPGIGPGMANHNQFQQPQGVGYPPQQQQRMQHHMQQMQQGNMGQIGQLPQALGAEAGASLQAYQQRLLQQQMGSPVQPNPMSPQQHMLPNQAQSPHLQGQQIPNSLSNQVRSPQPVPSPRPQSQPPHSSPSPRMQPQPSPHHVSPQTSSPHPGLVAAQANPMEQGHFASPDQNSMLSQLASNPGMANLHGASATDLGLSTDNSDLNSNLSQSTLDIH
UniProt P25490: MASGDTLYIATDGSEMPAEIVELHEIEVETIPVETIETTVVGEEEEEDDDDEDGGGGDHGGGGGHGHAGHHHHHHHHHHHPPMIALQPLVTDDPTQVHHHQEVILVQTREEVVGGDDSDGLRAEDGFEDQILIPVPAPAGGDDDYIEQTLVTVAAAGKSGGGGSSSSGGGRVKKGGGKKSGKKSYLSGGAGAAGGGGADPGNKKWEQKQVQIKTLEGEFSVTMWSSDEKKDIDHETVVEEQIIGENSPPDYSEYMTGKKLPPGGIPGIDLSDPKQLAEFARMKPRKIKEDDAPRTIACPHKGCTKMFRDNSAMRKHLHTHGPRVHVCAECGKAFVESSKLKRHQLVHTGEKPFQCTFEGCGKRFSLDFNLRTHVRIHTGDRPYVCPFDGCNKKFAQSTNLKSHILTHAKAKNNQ

What was measured:
Experiment in all cases: co-IP
[1] = target: AR-V7, exogenously expressed (UniProt P10275)
[2] = target: androgen receptor splice variant 7 (endogenous) (human (endogenous in 22Rv1)) (UniProt P10275)
[3] = target: p300 (endogenous p300 protein) (human (endogenous in 22Rv1)) (UniProt Q09472)

| Substance | binding [1] | binding [2] | binding [3] |
| --- | --- | --- | --- |
| HA-tagged YY1, WT (full-length) (from UniProt P25490 1-414) | binds |  |  |
| Yin Yang 1 (endogenous) (from UniProt P25490 1-414) |  | binds | binds |
